Experimental findings from article PMC7532676, “Salidroside can target both P4HB-mediated inflammation and melanogenesis of the skin” (Theranostics, 2020) are described below.

The chains behind the UniProt entries cited, without tags or fusion partners. Residues count along the entry.
UniProt P07237, residues 18-508: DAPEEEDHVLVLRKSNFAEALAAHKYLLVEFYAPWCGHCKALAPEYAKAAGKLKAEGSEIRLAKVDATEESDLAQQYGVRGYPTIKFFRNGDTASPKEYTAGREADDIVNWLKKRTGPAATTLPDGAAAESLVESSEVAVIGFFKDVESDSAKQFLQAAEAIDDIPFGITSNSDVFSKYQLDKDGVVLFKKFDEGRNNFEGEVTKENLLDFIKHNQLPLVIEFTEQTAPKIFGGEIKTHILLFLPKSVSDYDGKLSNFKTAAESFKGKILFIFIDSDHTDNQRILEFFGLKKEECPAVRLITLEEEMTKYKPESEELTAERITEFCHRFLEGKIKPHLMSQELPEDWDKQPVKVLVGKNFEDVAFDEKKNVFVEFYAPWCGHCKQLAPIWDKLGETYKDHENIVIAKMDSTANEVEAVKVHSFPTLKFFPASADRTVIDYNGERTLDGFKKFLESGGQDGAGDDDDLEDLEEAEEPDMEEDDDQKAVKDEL

No constants are given. Whether binding was seen depends on the method and setting. Binding seen in cells or lysates may run through a third protein. Some results given as binding are weak or reduced against the parent protein; the word gives no strength.

The assay has as its target T1, interferon regulatory factor 1 (human (endogenous in A375)) (UniProt P10914).
T1 sequence: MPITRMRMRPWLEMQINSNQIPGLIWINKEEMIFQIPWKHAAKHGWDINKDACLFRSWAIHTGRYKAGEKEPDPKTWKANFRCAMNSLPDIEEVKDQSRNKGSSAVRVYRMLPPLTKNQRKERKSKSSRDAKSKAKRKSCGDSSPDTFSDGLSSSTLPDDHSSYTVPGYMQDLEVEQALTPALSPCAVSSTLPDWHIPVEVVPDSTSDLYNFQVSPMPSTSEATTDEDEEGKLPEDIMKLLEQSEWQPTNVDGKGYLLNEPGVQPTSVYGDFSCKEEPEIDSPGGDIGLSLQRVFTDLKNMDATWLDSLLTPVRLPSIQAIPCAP
Put plainly: proximity ligation; fixed A375 cells, primary antibodies against the two proteins, Duolink PLA probes, signal only when the two proteins are <= 40 nm apart; siP4HB or IRF1 interference cells compared with control.

On to “prolyl 4-hydroxylase beta polypeptide (from UniProt P07237 18-508)”, for which the binding entry is on record as “binds”.
